Assay results reported in paper PMC8173155.
Results are given in words; binding and its absence hold for the method and conditions named. Binding seen in cells or lysates may run through a third protein. Some binding calls cover weakened binding; strength is not graded here.

Chains of the proteins cited; added tags and fusions are not shown. Residues count along the entry.
UniProt P11021, residues 19-654: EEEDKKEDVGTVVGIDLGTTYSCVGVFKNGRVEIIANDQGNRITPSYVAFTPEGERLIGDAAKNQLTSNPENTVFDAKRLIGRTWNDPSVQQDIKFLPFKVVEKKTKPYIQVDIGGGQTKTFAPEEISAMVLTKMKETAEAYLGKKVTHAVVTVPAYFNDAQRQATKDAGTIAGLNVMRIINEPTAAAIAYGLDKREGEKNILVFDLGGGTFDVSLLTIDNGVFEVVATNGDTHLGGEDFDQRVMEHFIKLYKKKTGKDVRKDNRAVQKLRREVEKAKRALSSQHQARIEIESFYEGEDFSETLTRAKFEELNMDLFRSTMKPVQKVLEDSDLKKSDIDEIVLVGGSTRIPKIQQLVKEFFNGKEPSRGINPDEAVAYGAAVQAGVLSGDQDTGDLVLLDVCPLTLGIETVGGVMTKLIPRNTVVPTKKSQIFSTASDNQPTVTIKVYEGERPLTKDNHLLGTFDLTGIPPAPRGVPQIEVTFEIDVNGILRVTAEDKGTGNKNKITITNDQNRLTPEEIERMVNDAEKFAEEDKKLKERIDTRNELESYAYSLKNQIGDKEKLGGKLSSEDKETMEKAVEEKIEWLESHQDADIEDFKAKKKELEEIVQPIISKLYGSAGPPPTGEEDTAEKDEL

What was measured:
[1] = target: T1, osteoprotegerin (OPG) (human (endogenous in SUM149PT and SUM190PT)) (UniProt O00300); assay: co-IP; lysates of SUM149PT and SUM190PT cells; immunoprecipitation with anti-OPG antibody (anti-IgG antibody as control), Western blot with anti-BiP/GRP78 antibody
T1 sequence: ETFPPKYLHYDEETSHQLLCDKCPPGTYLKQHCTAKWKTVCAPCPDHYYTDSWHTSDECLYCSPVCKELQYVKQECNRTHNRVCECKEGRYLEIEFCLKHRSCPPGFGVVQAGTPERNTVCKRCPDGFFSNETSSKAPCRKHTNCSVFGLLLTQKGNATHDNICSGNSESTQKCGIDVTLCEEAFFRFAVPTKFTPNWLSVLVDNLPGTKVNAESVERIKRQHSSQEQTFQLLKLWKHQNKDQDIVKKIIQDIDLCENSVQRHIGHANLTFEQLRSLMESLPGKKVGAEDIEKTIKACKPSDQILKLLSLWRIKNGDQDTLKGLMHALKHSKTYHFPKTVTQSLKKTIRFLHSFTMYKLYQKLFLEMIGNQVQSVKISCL

[2] = target: T1, osteoprotegerin (OPG) (human (endogenous in SUM149PT and SUM190PT)); assay: proximity ligation; DuoLink PLA on fixed, permeabilized SUM149PT and SUM190PT cells; primary antibodies from different species against OPG and BiP/GRP78; red fluorescent probe

In the case of “GRP78/BiP (glucose-regulated protein/Binding immunoglobulin protein) (from UniProt P11021 19-654)”, the binding [1] is reported as “binds” and the binding [2] is reported as “binds”.
